Test results from article PMC7737607.
No constants are given. Whether binding was seen depends on the method and setting. Binding seen in cells or lysates may run through a third protein. Some entries that bind do so weakly or less than the wild type.

Chains of the proteins cited; added tags and fusions are not shown. Residues count along the entry.
UniProt Q9UJC3: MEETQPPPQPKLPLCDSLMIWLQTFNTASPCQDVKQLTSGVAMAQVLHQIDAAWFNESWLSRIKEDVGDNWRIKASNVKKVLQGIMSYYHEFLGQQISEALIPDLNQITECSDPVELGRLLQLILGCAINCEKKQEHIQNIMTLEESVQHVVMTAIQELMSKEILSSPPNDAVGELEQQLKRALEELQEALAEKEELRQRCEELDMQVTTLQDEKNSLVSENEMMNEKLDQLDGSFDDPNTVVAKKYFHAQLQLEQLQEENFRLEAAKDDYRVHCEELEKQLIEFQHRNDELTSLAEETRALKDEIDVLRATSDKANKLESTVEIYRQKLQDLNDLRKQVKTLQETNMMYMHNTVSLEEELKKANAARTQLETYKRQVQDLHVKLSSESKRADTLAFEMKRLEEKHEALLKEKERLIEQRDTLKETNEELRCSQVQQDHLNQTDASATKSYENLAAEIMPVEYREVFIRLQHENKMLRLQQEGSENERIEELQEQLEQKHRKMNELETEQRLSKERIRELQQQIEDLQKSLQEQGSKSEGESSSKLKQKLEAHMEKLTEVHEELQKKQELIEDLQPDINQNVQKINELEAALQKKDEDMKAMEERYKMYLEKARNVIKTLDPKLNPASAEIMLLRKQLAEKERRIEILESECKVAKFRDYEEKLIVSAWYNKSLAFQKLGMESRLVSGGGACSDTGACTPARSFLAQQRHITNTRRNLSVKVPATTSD
UniProt Q13586, residues 23-685: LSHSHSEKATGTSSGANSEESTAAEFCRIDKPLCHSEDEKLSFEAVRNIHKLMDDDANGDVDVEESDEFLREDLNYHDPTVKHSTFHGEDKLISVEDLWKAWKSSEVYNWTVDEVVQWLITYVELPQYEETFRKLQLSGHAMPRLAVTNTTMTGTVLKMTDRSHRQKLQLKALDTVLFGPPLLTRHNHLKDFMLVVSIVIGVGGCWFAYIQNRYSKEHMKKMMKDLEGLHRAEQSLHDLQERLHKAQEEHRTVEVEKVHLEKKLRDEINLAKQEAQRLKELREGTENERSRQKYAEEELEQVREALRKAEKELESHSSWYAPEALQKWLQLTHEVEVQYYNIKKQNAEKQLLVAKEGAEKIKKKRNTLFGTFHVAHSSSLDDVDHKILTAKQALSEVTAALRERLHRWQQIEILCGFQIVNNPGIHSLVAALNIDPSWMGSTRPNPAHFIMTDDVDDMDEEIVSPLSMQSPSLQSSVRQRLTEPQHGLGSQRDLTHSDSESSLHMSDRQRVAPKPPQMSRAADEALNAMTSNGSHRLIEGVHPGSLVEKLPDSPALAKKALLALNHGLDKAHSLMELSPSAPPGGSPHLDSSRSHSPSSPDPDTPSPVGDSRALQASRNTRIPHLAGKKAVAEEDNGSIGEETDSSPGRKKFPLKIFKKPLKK
UniProt Q15691: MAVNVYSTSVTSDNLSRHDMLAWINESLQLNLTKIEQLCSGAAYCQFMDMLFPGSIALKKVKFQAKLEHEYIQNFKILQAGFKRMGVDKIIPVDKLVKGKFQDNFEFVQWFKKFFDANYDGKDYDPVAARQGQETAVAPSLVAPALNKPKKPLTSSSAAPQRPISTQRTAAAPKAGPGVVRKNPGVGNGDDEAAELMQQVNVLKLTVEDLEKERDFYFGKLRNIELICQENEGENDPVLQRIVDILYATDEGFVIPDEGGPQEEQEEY

Legend:
[1] = biological target: T1, kinesin-14 KIFC1 (human (endogenous in primary umbilical vein ECs)) (UniProt Q9BW19); assay: co-IP; endogenous KIFC1 immunoprecipitated (mouse antibody) from lysates of wild-type ECs; 25 mM Tris-HCl pH 7.2, 150 mM NaCl, 1% NP-40, 4°C; Western blot
T1 sequence: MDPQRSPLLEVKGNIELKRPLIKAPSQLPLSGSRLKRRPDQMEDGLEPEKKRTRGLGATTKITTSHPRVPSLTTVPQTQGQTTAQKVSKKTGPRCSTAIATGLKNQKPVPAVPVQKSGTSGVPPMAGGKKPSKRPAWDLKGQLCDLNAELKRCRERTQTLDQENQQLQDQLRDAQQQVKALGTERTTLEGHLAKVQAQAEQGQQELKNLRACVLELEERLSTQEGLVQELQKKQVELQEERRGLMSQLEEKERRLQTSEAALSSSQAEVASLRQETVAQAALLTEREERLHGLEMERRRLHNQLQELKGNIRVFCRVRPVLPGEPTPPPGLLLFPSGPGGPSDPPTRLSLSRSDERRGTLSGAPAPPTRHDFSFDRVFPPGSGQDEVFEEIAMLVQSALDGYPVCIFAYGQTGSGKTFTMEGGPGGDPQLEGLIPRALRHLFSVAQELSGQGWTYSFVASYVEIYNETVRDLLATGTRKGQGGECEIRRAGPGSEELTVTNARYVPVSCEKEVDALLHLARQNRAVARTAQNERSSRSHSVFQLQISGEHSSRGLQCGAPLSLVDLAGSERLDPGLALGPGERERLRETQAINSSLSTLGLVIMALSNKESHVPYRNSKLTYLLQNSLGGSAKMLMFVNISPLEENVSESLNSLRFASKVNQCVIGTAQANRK

[2] = biological target: HOOK1 (human (endogenous in primary umbilical vein ECs)) (UniProt Q9UJC3); assay: co-IP; endogenous HOOK1 immunoprecipitated (rabbit antibody) from lysates of wild-type ECs, untreated or treated with AZ82; 25 mM Tris-HCl pH 7.2, 150 mM NaCl, 1% NP-40, 4°C; Western blot
[3] = biological target: stromal interaction molecule 1 (STIM1) (human (endogenous in primary umbilical vein ECs)) (UniProt Q13586); assay: co-IP; endogenous STIM1 immunoprecipitated (rabbit antibody) from lysates of wild-type ECs; 25 mM Tris-HCl pH 7.2, 150 mM NaCl, 1% NP-40, 4°C; Western blot
[4] = biological target: MT plus end-binding protein 1 (EB1) (human (endogenous in primary umbilical vein ECs)) (UniProt Q15691); assay: co-IP; endogenous EB1 immunoprecipitated (mouse anti-EB1) from lysates of shCTL or shSTIM1 ECs; 1 mg lysate, 25 mM Tris-HCl pH 7.2, 150 mM NaCl, 1% NP-40, 4°C; Western blot

Binder	binding [1]	binding [2]	binding [3]	binding [4]
HOOK3 (protein, UniProt Q86VS8 1-718) MFSVESLERAELCESLLTWIQTFNVDAPCQTVEDLTNGVVMAQVLQKIDPAYFDENWLNRIKTEVGDNWRLKISNLKKILKGILDYNHEILGQQINDFTLPDVNLIGEHSDAAELGRMLQLILGCAVNCEQKQEYIQAIMMMEESVQHVVMTAIQELMSKESPVSAGNDAYVDLDRQLKKTTEELNEALSAKEEIAQRCHELDMQVAALQEEKSSLLAENQVLMERLNQSDSIEDPNSPAGRRHLQLQTQLEQLQEETFRLEAAKDDYRIRCEELEKEISELRQQNDELTTLADEAQSLKDEIDVLRHSSDKVSKLEGQVESYKKKLEDLGDLRRQVKLLEEKNTMYMQNTVSLEEELRKANAARSQLETYKRQVVELQNRLSEESKKADKLDFEYKRLKEKVDSLQKEKDRLRTERDSLKETIEELRCVQAQEGQLTTQGLMPLGSQESSDSLAAEIVTPEIREKLIRLQHENKMLKLNQEGSDNEKIALLQSLLDDANLRKNELETENRLVNQRLLEVQSQVEELQKSLQDQGSKAEDSVLLKKKLEEHLEKLHEANNELQKKRAIIEDLEPRFNNSSLKIEELQEALRKKEEEMKQMEERYKKYLEKAKSVIRTLDPKQNQGAAPEIQALKNQLQERDRLFHSLEKEYEKTKSQREMEEKYIVSAWYNMGMTLHKKAAEDRLASTGSGQSFLARQRQATSSRRSYPGHVQPATAR	binds	–	–	–
kinesin-14 KIFC1 (protein, UniProt Q9BW19 1-673) MDPQRSPLLEVKGNIELKRPLIKAPSQLPLSGSRLKRRPDQMEDGLEPEKKRTRGLGATTKITTSHPRVPSLTTVPQTQGQTTAQKVSKKTGPRCSTAIATGLKNQKPVPAVPVQKSGTSGVPPMAGGKKPSKRPAWDLKGQLCDLNAELKRCRERTQTLDQENQQLQDQLRDAQQQVKALGTERTTLEGHLAKVQAQAEQGQQELKNLRACVLELEERLSTQEGLVQELQKKQVELQEERRGLMSQLEEKERRLQTSEAALSSSQAEVASLRQETVAQAALLTEREERLHGLEMERRRLHNQLQELKGNIRVFCRVRPVLPGEPTPPPGLLLFPSGPGGPSDPPTRLSLSRSDERRGTLSGAPAPPTRHDFSFDRVFPPGSGQDEVFEEIAMLVQSALDGYPVCIFAYGQTGSGKTFTMEGGPGGDPQLEGLIPRALRHLFSVAQELSGQGWTYSFVASYVEIYNETVRDLLATGTRKGQGGECEIRRAGPGSEELTVTNARYVPVSCEKEVDALLHLARQNRAVARTAQNERSSRSHSVFQLQISGEHSSRGLQCGAPLSLVDLAGSERLDPGLALGPGERERLRETQAINSSLSTLGLVIMALSNKESHVPYRNSKLTYLLQNSLGGSAKMLMFVNISPLEENVSESLNSLRFASKVNQCVIGTAQANRK	–	no binding	no binding	binds
